Source: the supplement of paper PMC3334620
Whole data set: some 33,000 sequences, median “E-score (-0.5 to 0.5)” near -8e-05, cut for the highest 2% near 0.23. Some of the results follow.

target: T1, Nrg2 (UniProt P38082); experiment: PBM E-score (8-mer binding enrichment) (E-score (-0.5 to 0.5)); higher = stronger / more preferred TF binding; conditions: protein concentration: 100 nM; construct: GST-full length
T1 sequence: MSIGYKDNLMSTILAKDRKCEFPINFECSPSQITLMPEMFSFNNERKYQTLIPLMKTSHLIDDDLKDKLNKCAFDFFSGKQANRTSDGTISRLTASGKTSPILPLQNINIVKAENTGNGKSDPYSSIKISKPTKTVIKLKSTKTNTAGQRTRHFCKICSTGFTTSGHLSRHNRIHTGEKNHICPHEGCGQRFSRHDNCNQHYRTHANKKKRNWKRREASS
How it was run: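 Detection of bound protein used fluorescent anti-GST, with scans normalised by masliner. The proteins were GST-tagged yeast transcription factors applied at about 100-200 nM to universal all-10-mer Agilent arrays made double-stranded by primer extension. Each ungapped eight-base word, pooled with its reverse complement, was scored with an E-score from the Universal PBM Analysis Suite.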

Sequence | PBM E-score
ACCTGCCG | 0.0141
ACCTTCTC | 0.0642
ATTGCGCC | -0.0677
AGCGGCTA | 0.0469
TCAATGAA | 0.0879
AGACATAG | -0.081
CGAACATA | 0.158
CTATGTGA | 0.0144
AGGTTAGC | -0.202
AGAACACA | -0.00037
TAGACCAA | 0.121
GCACCTAC | -0.209
GGATCCCA | -0.0316
CAGTCAAG | 0.0398
TATTCGAA | 0.00532
CACCGGTA | -0.116
CAGCTGTA | -0.00792
CAGAAAAC | 0.0955
GTCAACAC | 0.0472
ACGGCTCG | 0.0931
CAACAGAC | 0.043
TGACGGCA | -0.135

Sequence | PBM E-score
AATGTACT | 0.225
CTAGTCCC | -0.024
CCATCGTC | -0.0303
CACTGGTA | -0.0865
ATCACTAG | -0.0341
AATAGAAT | 0.00976
GGTACACC | -0.245
GAGTCCAA | -0.0123
GTACGCAC | -0.0104
ATCGCCCG | 0.0967
ACCGGTCA | -0.103
CCAGAACG | 0.0997
AGCAGGCT | -0.212
ACTTCTCT | -0.0324
CTGACTTA | 0.0683
AATTGCCC | 0.014
TACCGTGA | -0.078
GAGACGGA | -0.00134
CTTACATC | 0.0569
ATGGTGCA | -0.0977
ATAGAGCG | -0.0355
CTTGAGTC | -0.0018

Sequence | PBM E-score
ACTGTCAA | -0.00935
CAGATCTA | -0.267
CACCATGA | -0.00138
ATCACATA | 0.156
GACGGTAC | -0.0512
GGATTCCA | 0.0661
CACGGGTC | 0.0696
CGCCCCTC | -0.0933
GATGAGCC | -0.0536
GGCTTCCA | -0.186
ATGATAAC | 0.108
AGGTATGA | 0.0294
ATGCAACG | -0.0466
ACAACGTC | -0.0313
CGCGAACA | 0.264
CTTTCCGA | -0.0403
ATGACCGC | -0.059
ACTGATCA | 0.109
AATTGCTC | -0.145
ATAGATTA | 0.185
GCCCGAAA | 0.206
CCGCTTTA | -0.0859

Sequence | PBM E-score
GGGTGTTA | 0.0762
AGACGCTG | -0.11
GCCGTCCA | 0.0263
CATCGCAG | -0.115
CCCTAGCG | -0.134
ACAATCAA | 0.0743
GACGGAGC | -0.195
AAATGATG | 0.184
AACGACAA | 0.106
AGATTATC | -0.0331
ATCGGTGA | 0.0722
ATTACCGA | 0.0314
AGTCCACG | 0.0976
CACATTCG | -0.00134
CTCCCTAA | -0.22
CCGTTATC | -0.0633
AGCGAAGG | 0.0397
AATGCTCA | -0.0147
GAAGCGCA | -0.0254
GCCTCTAC | -0.0801
ATAAGTTA | 0.197
GGTAATAC | 0.0271

Retrieved one by one from the entries so far, two records:
Sequence | PBM E-score
GAAGCGCA | -0.0254
GGGTGTTA | 0.0762

The results go on.

Sequence | PBM E-score
AGGGTCAA | 0.236
CCAGCAGC | -0.124
ACCGATAA | 0.00346
GTCGTAAC | -0.014
AGCCCTTA | -0.16
ACTAGCAG | 0.0356
CTGTAGTC | -0.00649
AGCTCTAC | -0.0559
GAATTCCC | -0.129
CCTTGCCA | -0.104
ATACTAAG | 0.0208
ATGCTGCC | -0.0349
CCGAGAAA | 0.17
CTCAGTCC | -0.323
CAACCATA | 0.0591
CGAATCAA | 0.22
CGCGTGCA | -0.103
CCGTGTAG | 0.031
GCGTAAGC | -0.212
CAGCTATA | 0.0723
CGCTAAGA | -0.0436
